Results are given in words; binding and its absence hold for the method and conditions named. A result given as binding can be weak or reduced; the word gives no strength.
Biological target: T1, rat Kir6.2 (rat) (UniProt P70673)
T1 sequence: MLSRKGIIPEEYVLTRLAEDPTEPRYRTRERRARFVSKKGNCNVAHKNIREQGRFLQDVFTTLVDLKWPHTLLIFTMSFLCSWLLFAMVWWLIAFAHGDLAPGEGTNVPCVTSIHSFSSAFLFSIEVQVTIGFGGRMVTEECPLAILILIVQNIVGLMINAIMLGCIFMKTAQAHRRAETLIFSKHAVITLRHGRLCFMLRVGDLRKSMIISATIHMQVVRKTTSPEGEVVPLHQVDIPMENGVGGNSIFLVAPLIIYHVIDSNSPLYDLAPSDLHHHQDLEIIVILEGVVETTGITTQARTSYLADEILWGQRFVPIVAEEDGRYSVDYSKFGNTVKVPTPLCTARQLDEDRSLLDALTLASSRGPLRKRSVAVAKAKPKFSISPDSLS
Experiment: cryo-EM structure; purified SUR1/Kir6.2 KATP channel in digitonin, 1 mM ATP (no Mg2+) and 1 µM glibenclamide; C4 symmetry imposed; 3.63 Å; both purified

binding: binds
Substance: FLAG-tagged hamster SUR1

— paper PMC5655142, “Anti-diabetic drug binding site in a mammalian KATP channel revealed by Cryo-EM” (eLife, 2017)
